Assay results taken from PubChem BioAssay AID1487 (National Center for Advancing Translational Sciences (NCATS), 2009).
Values joined by “and” are separate entries in the source; they are usually repeats but may differ in a detail not shown here. Identical values can stand only once. Some of the results follow. Further columns of the screen follow, without active or inactive calls. Most of these compounds were active or inconclusive in the main read-out, so they are no random draw. The note in brackets gives the kind of curve behind each potency; many fits are weak.

Experiment: qHTS Assay for Modulators of Lamin A Splicing
Settings: HeLa LMNA splicing GFP/RFP minigene ratio, 48 h
Method in brief: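 S3 HeLa cells stably expressing lamin A-EGFP splicing minigene plus DsRed2, 600 cells/well, 48 h compound exposure at 37C. Laser-scanning cytometry; analysed as GFP (500-530 nm)/RFP (575-640 nm) total intensity ratio; 0.5% DMSO vehicle.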

[1] = measured here: RFP viability control channel
[2] = measured here: GFP splicing reporter channel

Row | SMILES | AC50 [1] | AC50 [2]
1 | CCN(CC)c1ncnc2c1sc1nc(C)cc(C)c12 | 14.1 µM [falling, single point] | –
2 | CCN(CC)C(=S)SSC(=S)N(CC)CC | 89.1 nM [falling, full curve] and 2.82 µM [falling, partial curve] and 200 nM [falling, full curve] | 112 nM [falling, full curve] and 63.1 nM [falling, full curve, poor fit] and 35.5 nM [falling, full curve]
3 | COc1ccccc1C(=O)Nc1nc2ccc(S(=O)(=O)N3CCCC3)cc2s1 | – | 0.562 µM [rising, full curve, poor fit]
4 | Cc1nc2ccccc2c2oc(C(=O)N3CCN(C4CCCCC4)CC3)cc12 | 11.2 µM [rising, partial curve] | –
5 | N/C(=N/OCc1cccc([N+](=O)[O-])c1)c1nonc1N | 35.5 µM [rising, single point] | 35.5 µM [rising, single point]
6 | Clc1ccc(COn2ccnc2)cc1Cl | – | 0.316 µM [rising, full curve, poor fit]
7 | O=C(NCc1ccccc1Cl)C(=O)NCC(c1ccco1)N1CCOCC1 (stereo unspecified) | 0.0316 µM [falling, full curve] | 0.0316 µM [falling, full curve, poor fit]
8 | CC(C)(C)c1ccc(NC(=O)COC(=O)C2(C)CC2(Cl)Cl)cc1 (stereo unspecified) | 12.6 µM [rising, single point] | 5.62 µM [rising, full curve, poor fit]
9 | Cc1ccc(CSc2nnc(NC(=O)C3COc4ccccc4O3)s2)cc1 (stereo unspecified) | 20 µM [rising, single point] | 35.5 µM [rising, single point]
10 | C/C(=N\NC(=S)Nc1c(C)cccc1C)c1ccc(OC(F)F)cc1 | – | 11.2 µM [rising, partial curve]
11 | Cc1ccc(NC(=O)Nc2ccccc2)cc1[N+](=O)[O-] | 20 µM [rising, single point] | –
12 | COc1ccc(NC(=O)c2ccc(C)cc2)c(OC)c1 | 22.4 µM [rising, single point] | –
13 | COc1cc2c(cc1OC)CN(CC(=O)NC(=O)NC(C)(C)C)CC2 | – | 3.16 µM [rising, full curve, poor fit]
14 | COC(=O)c1ccccc1-c1ccc(/C=N/NC(=O)c2cc3ccccc3o2)o1 | 17.8 µM [rising, single point] | –
15 | O=C(OC(C(=O)Nc1ccc(Cl)c(C(F)(F)F)c1)c1ccccc1)C1=COCCO1 (stereo unspecified) | 25.1 µM [rising, single point] | 12.6 µM [rising, single point]
16 | Cc1nn(C)c(C)c1NC(=O)CCCSc1nc(-c2ccco2)cc(C(F)(F)F)n1 | 35.5 µM [rising, partial curve] | 35.5 µM [rising, single point]
17 | COc1ccc(Nc2nnc(SC(C(=O)Nc3ccc(OC)c(Cl)c3)c3ccccc3)s2)cc1 (stereo unspecified) | 14.1 µM [rising, single point] | 8.91 µM [rising, partial curve]
18 | Cc1ccc2ccc(C(Nc3ccccn3)c3ccccc3)c(O)c2n1 (stereo unspecified) | 15.8 µM [rising, single point] | –
19 | COc1ccc(/C=C/C(=O)C2C(=O)C=C(C)OC2=O)cc1O (stereo unspecified) | 10 µM [rising, partial curve] | –
20 | CC(C)Cc1nn2c(=O)cc(COC(=O)c3cccc(NC(=O)CCc4ccccc4)c3)nc2s1 | 7.94 µM [falling, partial curve] | 11.2 µM [falling, partial curve]
21 | N#C/C(=C\c1ccc(N2CCOCC2)o1)c1ccccc1 | 35.5 µM [falling, single point] | 22.4 µM [falling, single point]
22 | COc1ccccc1/C=C/C=N/n1c(-c2ccncc2)n[nH]c1=S | 11.2 µM [rising, partial curve] | –
23 | O=C(Nc1nccs1)c1cc(-c2ccccc2)nc2ccccc12 | 35.5 µM [rising, single point] | 11.2 µM [rising, partial curve, poor fit]
24 | Cc1ccc(NNC(=S)Nc2ccc(C(C)C)cc2)c(C)c1 | 12.6 µM [rising, single point] | –
25 | C/C(=N/NC(=O)c1ccoc1C)c1cccc(NC(=O)C2CC2)c1 | 0.251 µM [rising, full curve] | 0.224 µM [rising, full curve, poor fit]
26 | O=C(CCNS(=O)(=O)c1ccc(Cl)cc1)N1CCN(Cc2ccccc2)CC1 | 35.5 µM [rising, single point] | –
27 | O=C(Cn1nc(-c2ccccc2F)ccc1=O)Nc1ccc(S(=O)(=O)N2CCCCCC2)cc1 | 20 µM [rising, single point] | –

Row | SMILES | AC50 [1] | AC50 [2]
28 | OCC1(Cc2cccc(F)c2)CCN(Cc2ccc3cccc(F)c3n2)CC1 | 0.0708 µM [falling, full curve, poor fit] | 0.00891 µM [falling, full curve, poor fit]
29 | CCN1CCN(c2nc(-c3ccncc3)nc3ccccc23)CC1 | 35.5 µM [rising, single point] | –
30 | O=C(CSc1nc(-c2cccs2)cc(C(F)(F)F)n1)NCCCn1ccnc1 | 6.31 µM [rising, full curve, poor fit] | –
31 | CCN(CC)CCCNC(=O)c1oc2c(c1C)-c1nn(Cc3ccc(Cl)cc3)cc1CC2 | 0.891 µM [falling, partial curve, poor fit] | –
32 | CN(CCO)c1cc(N(C)CCO)c([N+](=O)[O-])cc1[N+](=O)[O-] | – | 0.0224 µM [rising, full curve, poor fit]
33 | Cc1onc(-c2ccccc2Cl)c1C(=O)Nc1nnc(-c2ccc(F)cc2)s1 | 35.5 µM [rising, single point] | –
34 | COc1ccc(N=CC2=C(O)CC(c3ccccc3)CC2=O)c(OC)c1 (stereo unspecified) | 20 µM [rising, partial curve] | 8.91 µM [rising, partial curve]
35 | COc1ccc(C(CC(=O)O)NC(=O)Nc2ccccc2)cc1OC (stereo unspecified) | 3.55 µM [rising, partial curve] | 4.47 µM [rising, partial curve]
36 | CCOC(=O)Cn1c(CN2CCN(C(c3ccccc3)c3ccccc3)CC2)nc2c1c(=O)n(C)c(=O)n2C | 10 µM [rising, partial curve] | –
37 | Cc1nc(C(C)NC(=O)CCc2nnc(Cc3c[nH]c4ccccc34)o2)cs1 (stereo unspecified) | 0.158 µM [falling, full curve, poor fit] | 0.141 µM [falling, full curve, poor fit]
38 | CCNC(=S)Nc1ccc2ncoc2c1 | 2.82 µM [rising, single point] | –
39 | NC(=O)c1ccccc1NC(=S)NC(=O)CCc1ccccc1 | 10 µM [rising, partial curve] | 35.5 µM [rising, single point]
40 | CCCn1c(N)c(C(=O)CSc2nnc(Cc3ccccc3)o2)c(=O)n(C)c1=O | 12.6 µM [rising, partial curve] | 0.708 µM [rising, partial curve]
41 | COC(=O)c1ccc(NC(=O)CN(c2ccc(C)cc2)S(=O)(=O)c2c(C)n[nH]c2C)cc1 | 14.1 µM [falling, single point] | 35.5 µM [falling, partial curve, poor fit]
42 | COc1ccc(C(=O)CCC(=O)Nc2ccccc2C)cc1 | 35.5 µM [falling, partial curve] | –
43 | O=C(CSc1cc(Cl)ccc1Cl)NCC(=O)Nc1ccc(F)c(F)c1F | 20 µM [rising, partial curve] | –
44 | CSc1nc(Sc2ccccc2)c2ccccc2n1 | 14.1 µM [rising, partial curve] | –
45 | CC(C)C(=O)NCc1cc(-c2ccc(Cl)cc2)no1 | 0.00891 µM [falling, full curve, poor fit] | –
46 | O=C(NNC(=O)C1CC1c1ccccc1)Nc1cccc(Cl)c1 (stereo unspecified) | 0.00891 µM [falling, full curve, poor fit] | –
47 | O=[N+]([O-])c1ccc(Cl)c(CN2CCC(O)CC2)c1 | 35.5 µM [rising, single point] | –
48 | O=C(CSc1nnc(NC(=O)c2c(F)cccc2F)s1)Nc1ccc(F)cc1 | 22.4 µM [falling, partial curve] | 1 µM [falling, full curve]
49 | CCN1C/C(=C/c2ccc(N3CCOCC3)cc2)C(=O)/C(=C/c2ccc(N3CCOCC3)cc2)C1 | 35.5 µM [falling, single point] | 35.5 µM [falling, single point]
50 | Cc1ccc(C)c(N2CCN(C(=O)CN3C(=O)CSc4c3c(C)nn4-c3ccccc3)CC2)c1 | 0.00355 µM [falling, full curve, poor fit] | –
51 | CCC1=NN(C(=O)CCc2ccc3c(c2)OCO3)C(O)(C(F)(F)F)C1 (stereo unspecified) | 11.2 µM [falling, partial curve] | 17.8 µM [falling, partial curve, poor fit]
52 | CCN(CC)c1ccc(NC(=O)c2cccc(OC)c2)c(C)c1 | 11.2 µM [rising, partial curve] | –
53 | CC1(C)Cc2c(ccc3ccccc23)C(=O)N1 | – | 35.5 µM [falling, single point]
54 | O=c1cc(N2CCCCC2)c(-c2ccccc2)nn1Cc1ccccc1 | 39.8 µM [falling, partial curve, poor fit] | –
